Laboratory results: PubChem BioAssay AID493014 (National Center for Advancing Translational Sciences (NCATS), 2011)
The other results are listed elsewhere or left out. The main result of the screen is listed elsewhere. These columns were measured beside it and carry no call. Most of these compounds were active or inconclusive in the main read-out, so they are no random draw. The note in brackets gives the kind of curve behind each potency; many fits are weak.

Assay: qHTS Assay to Find Inhibitors of Chronic Active B-Cell Receptor Signaling
Details: ABC-DLBCL IkBa-CBG/CBR reporter, luminescence ratio (green luciferase fused to IkBa over red control in TMD8 lymphoma cells), 4 h
Summary of the method: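 TMD8 human ABC-DLBCL cells with doxycycline-inducible IκBα–green luciferase fusion and unfused red luciferase, in 0.5% FBS medium; compounds up to 46 uM, 4 h at 37C. Green/red luminescence ratio, filter-overlap corrected, fitted to concentration-response curves.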

[1] = measured here: CBR red luminescence, cell number
[2] = measured here: IkBa-CBG green luminescence

Row | SMILES | AC50 [1] | AC50 [2]
1 | Nc1nc(NCCc2ccccc2)nc(NCCO)c1[N+](=O)[O-] | 14.1 µM [rising, partial curve] | 
2 | Cn1c(Cn2nnc3ccccc32)nnc1SCC(=O)N1c2ccccc2Sc2ccccc21 | 35.5 µM [falling, single point] | 
3 | CCSc1nnc2ccc(-c3ccc(OC)c(OC)c3)nn12 |  | 3.55 µM [falling, partial curve]
4 | O=S(=O)(c1cccc2cccnc12)N1CCOCC1 | 0.58 µM [falling, full curve, poor fit] | 
5 | C=CCCC(=O)Nc1nc(C)c(-c2csc(Nc3ccccc3OC)n2)s1 | 35.5 µM [falling, single point] | 
6 | COc1cc(/C=N\NC(=O)c2ccc(C)nc2)ccc1OC(=O)c1ccco1 | 9.2 µM [falling, partial curve, poor fit] | 
7 | CCOC(=O)C1CCN(C(=O)COC(=O)c2oc3ccccc3c2C)CC1 | 3.26 µM [rising, partial curve, poor fit] | 
8 | O=C(Nc1cccc([N+](=O)[O-])c1)c1cc(S(=O)(=O)Nc2ccccn2)ccc1Cl | 11.2 µM [rising, single point] | 
9 | O=C(O)CCCCCN1C(=O)/C(=C\c2ccncc2)SC1=S | 0.82 µM [falling, full curve] | 
10 | O=C(NCc1ccco1)c1cccc(-c2nnc(-c3ccccc3)o2)c1 | 6.51 µM [falling, partial curve] | 
11 | NC(=S)N=Nc1c(O)n(CCCl)c2ccccc12 | 15.8 µM [falling, single point] | 12.6 µM [falling, partial curve]
12 | CCOC(=O)N1CCC(N2C(=O)c3ccccc3C2Nc2cc(Cl)c(OC)cc2OC)CC1 (stereo not drawn) | 3.66 µM [rising, single point] | 
13 | O=C(NNc1c(Cl)cc(Cl)cc1Cl)c1cccc([N+](=O)[O-])c1 | 16.4 µM [rising, partial curve, poor fit] | 
14 | CCCCCNC(=O)c1cc(S(=O)(=O)N2CCCC2)ccc1F | 25.9 µM [rising, single point] | 
15 | COc1cccc(CN2C(=O)C(C)N(C(=O)c3c(F)cccc3F)c3ccccc32)c1 (stereo not drawn) | 12.6 µM [falling, partial curve] | 
16 | O=C(O)COc1ccccc1C1C2C(=O)N(c3ccccc3)C(=O)C2ON1c1ccccc1 (stereo not drawn) | 2.24 µM [falling, partial curve, poor fit] | 
17 | CC(C)Cn1cc(C(=O)NCCCN2CCCC2=O)c2c3ccccc3n(C)c2c1=O | 6.51 µM [rising, single point] | 
18 | O=C(COC(=O)c1ccccc1)c1ccc(Br)cc1 | 35.5 µM [falling, single point] | 
19 | Cc1nc2nc(-c3ccco3)[nH]n2c(=O)c1C | 1.64 µM [falling, partial curve, poor fit] | 
20 | CCn1cc(Br)c(C(=O)Nc2ccc(Cl)cc2Cl)n1 | 3.66 µM [rising, full curve, poor fit] | 

Complete entries, quoted from the list:
CCOC(=O)N1CCC(N2C(=O)c3ccccc3C2Nc2cc(Cl)c(OC)cc2OC)CC1 (stereo not drawn) is entered as AC50 [1]: 3.66 µM [rising, single point]
C=CCCC(=O)Nc1nc(C)c(-c2csc(Nc3ccccc3OC)n2)s1 is entered as AC50 [1]: 35.5 µM [falling, single point]
COc1cc(/C=N\NC(=O)c2ccc(C)nc2)ccc1OC(=O)c1ccco1 is entered as AC50 [1]: 9.2 µM [falling, partial curve, poor fit]

Next part

Row | SMILES | AC50 [1] | AC50 [2]
21 | CC(SCc1ccccc1)C(=O)Nc1ccc(F)cc1 (stereo not drawn) | 17.8 µM [falling, partial curve, poor fit] | 
22 | COC(=O)COc1ccc(S(=O)(=O)Nc2ccccc2C(=O)OC)cc1 | 6.51 µM [rising, single point] | 
23 | CCc1cccc2c1NC1(CCCC1)CC2C (stereo not drawn) | 12.6 µM [falling, partial curve, poor fit] | 
24 | O/C(=C\c1ccc2ccccc2n1)c1ccncc1 | 23.1 µM [falling, single point] | 
25 | C=CCNC(=O)C(=O)NN=C1CCN(C)CC1 | 16.4 µM [rising, partial curve, poor fit] | 
26 | O=C(Nc1ccc2c(c1)OCCO2)c1cccc(Br)c1 | 22.4 µM [falling, single point] | 
27 | COc1ccc(-n2ncc3c(NCc4ccc5c(c4)OCO5)ncnc32)cc1 | 3.66 µM [falling, partial curve, poor fit] | 
28 | CCc1ccccc1NC(=O)CNC(=O)c1n[nH]c(=O)c2ccccc12 | 16.4 µM [falling, partial curve, poor fit] | 
29 | C=CCn1c(SCC(=O)NCCCC)nc2scc(-c3ccco3)c2c1=O | 18.4 µM [falling, single point] | 23.1 µM [rising, single point]
30 | CN(C)c1ccc(Nc2nc(-c3cccnc3)cs2)cc1 | 0.355 µM [rising, partial curve, poor fit] | 
31 | CN(C)S(=O)(=O)c1ccc(Cl)c(C(=O)Nc2nc3ccccc3[nH]2)c1 | 15.8 µM [falling, single point] | 
32 | CCc1nnc(NC(=O)c2ccc(OC)cc2)s1 | 11.2 µM [falling, partial curve, poor fit] | 
33 | CC1=NN(C(=O)CSCc2ccccc2)C(O)(c2ccc(Cl)cc2)C1 (stereo not drawn) | 15.8 µM [falling, partial curve, poor fit] | 
34 | COc1cc(/C=C/C(=O)OCC(=O)NC(=O)NC(C)(C)C)ccc1O | 11.2 µM [falling, single point] | 
35 | CCC(CCC(=O)Nc1cccc([N+](=O)[O-])c1)C(=O)O (stereo not drawn) | 0.355 µM [rising, full curve, poor fit] | 
36 | CC(C)(C)NC(=O)C(c1cccs1)N(Cc1ccc(F)cc1)C(=O)c1csnn1 (stereo not drawn) | 7.08 µM [falling, full curve] | 
37 | N#Cc1ccccc1/C=N/Nc1nc(-c2ccccc2)c2cc(Br)ccc2n1 | 6.31 µM [falling, partial curve, poor fit] | 
38 | COc1ccc(C(=O)Nc2ccccc2C(=O)N/N=C/c2ccccc2OC)cc1 | 5.62 µM [falling, partial curve] | 
39 | CN1Cc2c(N3CCOCC3)nc(SCc3ccccc3)c(C#N)c2CC1(C)C | 35.5 µM [falling, single point] | 
40 | CC(=O)Nc1cccc(NC(=O)CN2c3cccc4cccc(c34)S2(=O)=O)c1 | 20.6 µM [rising, partial curve, poor fit] | 16.4 µM [falling, single point]
